Data as given in PubChem BioAssay AID1259280 (Sanger Institute, 2017).
The deposit covers 794 reagents; below is a part drawn at random. 12 of them (1.5%) count as active. 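Calls cover knock-down without drug only; synergy scores stand apart, values above 0.15 being treated as synergy.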 Further read-outs or replicates are left out here. No sequences are given here. Not given: the amount of reagent, the time to read-out.

- Purpose: 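Kinase knock-downs that kill colorectal cancer cells or add to anchor drugs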 (primary screen)
- System: human SNU407 colorectal cancer cells
- Knock-down reagent: siRNA pool against human genes
- Conditions: anchor drugs BYL719 at 1 µM, cetuximab at 5 µg/ml or trametinib at 10 nM, or DMSO vehicle alone; exposure time not given
- Detection: 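Viability per well scaled to a non-targeting pool and averaged over replicates, with a robust z-score from controls and a synergy score per anchor drug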
- Direction: viability z-score, no drug: higher = more cells survive the knock-down
- Active means: 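Essential calls require a no-drug robust viability z-score under -3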
- Meaning of the calls: active = essential (knock-down alone kills cells); inactive = no change without drug

PGK1
- viability z-score, no drug: 0.421
- Call: inactive

PCBP1
- viability z-score, no drug: -0.465
- Call: inactive

FOXP1
- viability z-score, no drug: -1.12
- Call: inactive

AMER1
- viability z-score, no drug: 0.901
- Call: inactive

BLK
- viability z-score, no drug: -0.123
- Call: inactive

AAK1
- viability z-score, no drug: -0.771
- Call: inactive

DYRK1A
- viability z-score, no drug: 0.34
- Call: inactive

SNRK
- viability z-score, no drug: -0.267
- Call: inactive

PKIA
- viability z-score, no drug: 0.901
- Call: inactive

RBM10
- viability z-score, no drug: -1.61
- Call: inactive

XYLB
- viability z-score, no drug: -1.2
- Call: inactive

ITSN1
- viability z-score, no drug: -0.148
- Call: inactive

SRPK2
- viability z-score, no drug: -1.05
- Call: inactive

CAMKK1
- viability z-score, no drug: 0.901
- Call: inactive

EPHB6
- viability z-score, no drug: 0.0513
- Call: inactive

GUCY2EP
- viability z-score, no drug: -1.63
- Call: inactive

PDK1
- viability z-score, no drug: 0.204
- Call: inactive

CPNE3
- viability z-score, no drug: 0.625
- Call: inactive

DGKH
- viability z-score, no drug: -0.572
- Call: inactive

CSNK1E
- viability z-score, no drug: -2.6
- Call: inactive

RELA
- viability z-score, no drug: 0.884
- Call: inactive

EPHA8
- viability z-score, no drug: -0.707
- Call: inactive

DYRK3
- viability z-score, no drug: 0.705
- Call: inactive

DCLK2
- viability z-score, no drug: -0.47
- Call: inactive

PTK2B
- viability z-score, no drug: -0.628
- Call: inactive

PKDCC
- viability z-score, no drug: 0.901
- Call: inactive

BRDT
- viability z-score, no drug: 0.805
- Call: inactive

BUB1
- viability z-score, no drug: 0.246
- Call: inactive

As entered above.
Under “Call”, DCLK2 shows inactive
For “Call”, EPHB6 is entered as inactive
FOXP1, viability z-score, no drug = -1.12
RBM10, viability z-score, no drug → -1.61
